Results are given in words; binding and its absence hold for the method and conditions named. Some results given as binding are weak or reduced against the parent protein; the word gives no strength.

Sequences of proteins named here, by UniProt entry; tags and fusion partners are left off. A change or cut given only in a name is not applied to a line headed by its entry. Residues count along the entry.
UniProt P11276, residues 33-2477: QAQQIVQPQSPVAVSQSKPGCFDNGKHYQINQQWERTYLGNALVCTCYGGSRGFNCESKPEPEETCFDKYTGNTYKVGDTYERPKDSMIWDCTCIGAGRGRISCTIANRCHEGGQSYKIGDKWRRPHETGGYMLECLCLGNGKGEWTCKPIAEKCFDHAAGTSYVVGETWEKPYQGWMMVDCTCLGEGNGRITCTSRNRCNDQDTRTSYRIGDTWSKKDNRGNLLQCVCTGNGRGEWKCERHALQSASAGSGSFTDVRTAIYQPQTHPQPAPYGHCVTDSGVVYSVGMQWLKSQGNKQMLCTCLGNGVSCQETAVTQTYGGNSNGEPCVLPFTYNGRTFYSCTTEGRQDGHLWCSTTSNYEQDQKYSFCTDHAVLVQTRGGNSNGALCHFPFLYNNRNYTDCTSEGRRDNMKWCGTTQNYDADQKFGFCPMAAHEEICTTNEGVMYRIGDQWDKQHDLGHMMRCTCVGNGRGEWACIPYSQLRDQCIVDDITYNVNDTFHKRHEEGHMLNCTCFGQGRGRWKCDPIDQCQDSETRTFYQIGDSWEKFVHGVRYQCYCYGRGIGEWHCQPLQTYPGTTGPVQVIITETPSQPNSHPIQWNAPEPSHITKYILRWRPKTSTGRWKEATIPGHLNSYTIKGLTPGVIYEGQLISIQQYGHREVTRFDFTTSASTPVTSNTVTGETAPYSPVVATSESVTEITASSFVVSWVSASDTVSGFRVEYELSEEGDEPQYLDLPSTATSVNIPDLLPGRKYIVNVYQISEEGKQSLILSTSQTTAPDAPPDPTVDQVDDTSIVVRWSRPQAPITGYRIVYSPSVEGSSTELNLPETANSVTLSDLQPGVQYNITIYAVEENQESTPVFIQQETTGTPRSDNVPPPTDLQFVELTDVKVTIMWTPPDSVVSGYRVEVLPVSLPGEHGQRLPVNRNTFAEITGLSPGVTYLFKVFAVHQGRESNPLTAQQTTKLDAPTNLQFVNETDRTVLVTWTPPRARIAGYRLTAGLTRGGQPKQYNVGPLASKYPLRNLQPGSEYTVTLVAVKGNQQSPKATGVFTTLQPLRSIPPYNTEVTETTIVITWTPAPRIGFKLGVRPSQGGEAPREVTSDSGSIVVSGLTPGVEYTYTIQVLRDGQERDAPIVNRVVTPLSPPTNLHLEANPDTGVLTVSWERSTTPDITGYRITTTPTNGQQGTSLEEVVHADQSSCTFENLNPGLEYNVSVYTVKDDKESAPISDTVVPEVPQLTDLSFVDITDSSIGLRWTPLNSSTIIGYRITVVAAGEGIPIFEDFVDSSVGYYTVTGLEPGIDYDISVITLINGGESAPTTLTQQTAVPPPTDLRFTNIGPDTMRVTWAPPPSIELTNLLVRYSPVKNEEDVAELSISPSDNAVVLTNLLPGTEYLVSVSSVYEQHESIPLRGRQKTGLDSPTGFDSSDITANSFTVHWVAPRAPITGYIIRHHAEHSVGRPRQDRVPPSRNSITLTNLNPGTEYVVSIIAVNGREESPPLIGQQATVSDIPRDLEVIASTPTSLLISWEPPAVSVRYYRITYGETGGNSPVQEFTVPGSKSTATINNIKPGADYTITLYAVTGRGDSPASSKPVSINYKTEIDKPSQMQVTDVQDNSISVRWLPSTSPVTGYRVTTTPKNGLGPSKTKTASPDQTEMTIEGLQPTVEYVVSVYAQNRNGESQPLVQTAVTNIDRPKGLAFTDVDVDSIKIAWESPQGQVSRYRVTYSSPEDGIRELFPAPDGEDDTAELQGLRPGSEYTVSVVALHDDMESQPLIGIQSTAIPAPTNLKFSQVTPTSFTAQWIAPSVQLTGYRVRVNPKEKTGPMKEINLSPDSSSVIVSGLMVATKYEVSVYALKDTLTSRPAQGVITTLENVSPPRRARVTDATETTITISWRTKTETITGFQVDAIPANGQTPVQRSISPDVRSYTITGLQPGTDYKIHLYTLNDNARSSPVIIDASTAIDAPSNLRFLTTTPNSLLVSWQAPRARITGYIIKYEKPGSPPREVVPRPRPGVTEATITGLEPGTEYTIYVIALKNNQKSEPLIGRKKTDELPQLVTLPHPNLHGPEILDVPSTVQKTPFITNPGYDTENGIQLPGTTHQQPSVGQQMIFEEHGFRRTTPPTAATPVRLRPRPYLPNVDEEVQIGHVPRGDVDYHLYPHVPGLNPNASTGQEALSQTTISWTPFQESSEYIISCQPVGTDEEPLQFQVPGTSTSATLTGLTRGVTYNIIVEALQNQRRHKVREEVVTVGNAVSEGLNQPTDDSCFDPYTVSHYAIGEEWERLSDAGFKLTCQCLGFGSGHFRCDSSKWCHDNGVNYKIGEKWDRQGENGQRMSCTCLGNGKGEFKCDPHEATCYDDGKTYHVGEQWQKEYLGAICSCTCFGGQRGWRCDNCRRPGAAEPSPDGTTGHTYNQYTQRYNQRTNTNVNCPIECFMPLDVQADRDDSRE
UniProt P11688: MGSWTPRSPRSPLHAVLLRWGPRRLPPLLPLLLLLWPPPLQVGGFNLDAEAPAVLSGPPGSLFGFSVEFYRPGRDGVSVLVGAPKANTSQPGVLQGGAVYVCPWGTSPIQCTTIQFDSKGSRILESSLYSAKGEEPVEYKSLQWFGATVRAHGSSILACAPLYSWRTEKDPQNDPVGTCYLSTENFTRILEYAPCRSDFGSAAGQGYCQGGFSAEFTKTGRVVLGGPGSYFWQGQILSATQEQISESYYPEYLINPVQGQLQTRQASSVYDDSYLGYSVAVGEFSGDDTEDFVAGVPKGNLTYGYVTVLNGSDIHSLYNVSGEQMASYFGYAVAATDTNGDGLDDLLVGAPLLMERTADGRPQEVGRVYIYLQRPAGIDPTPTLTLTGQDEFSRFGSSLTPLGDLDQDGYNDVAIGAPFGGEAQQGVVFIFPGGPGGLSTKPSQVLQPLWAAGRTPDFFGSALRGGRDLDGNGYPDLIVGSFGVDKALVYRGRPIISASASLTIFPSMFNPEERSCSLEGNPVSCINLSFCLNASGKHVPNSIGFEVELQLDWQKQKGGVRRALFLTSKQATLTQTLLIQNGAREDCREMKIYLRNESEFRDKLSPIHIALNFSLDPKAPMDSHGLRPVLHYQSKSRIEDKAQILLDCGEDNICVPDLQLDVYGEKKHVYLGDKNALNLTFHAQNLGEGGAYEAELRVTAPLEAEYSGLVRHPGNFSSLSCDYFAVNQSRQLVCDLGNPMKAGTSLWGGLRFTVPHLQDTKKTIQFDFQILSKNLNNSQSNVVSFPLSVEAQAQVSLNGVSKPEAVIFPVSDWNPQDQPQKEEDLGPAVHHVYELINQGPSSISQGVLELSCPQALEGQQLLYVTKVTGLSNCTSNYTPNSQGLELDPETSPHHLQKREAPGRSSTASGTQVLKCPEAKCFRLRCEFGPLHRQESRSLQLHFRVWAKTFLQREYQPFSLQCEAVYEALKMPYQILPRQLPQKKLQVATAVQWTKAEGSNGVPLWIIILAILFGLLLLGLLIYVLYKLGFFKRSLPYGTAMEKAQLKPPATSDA

In the experiment the target is cellular mouse fibronectin (mouse) (UniProt P11276). In words: ELISA; cellular mouse fibronectin (250 ng) coated on the plate overnight at 4°C; α5β1-Fc in solution with various concentrations of antibodies, 1 hr at room temperature; detected with goat anti-human IgG Fc-HRP; both purified. For orientation: ELISA stands for enzyme-linked immunosorbent assay.

In the case of “mouse integrin α5β1-Fc fusion protein (from UniProt P11688 45-999; P09055 21-728)”, the binding result was “binds”.

(Values after article PMC2235829.)
